Data as given in PubChem BioAssay AID2685 (National Center for Advancing Translational Sciences (NCATS), 2010).
The other results are listed elsewhere or left out. Further columns of the screen follow, without active or inactive calls. Most of these compounds were active or inconclusive in the main read-out, so they are no random draw. Potencies come from curve fits of mixed quality, noted in brackets.

Assay: qHTS Assay for Lipid Storage Modulators in Drosophila S3 Cells;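 on cell number change: cells counted by Cell Tracker Red CMTPX staining in the red channel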
Conditions: BODIPY lipid droplet fluorescence, 18-24 h; for cell number change: measured here: cell count max response, cells fed with added oleic acid
In short: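 Drosophila S3 cells got compounds at several concentrations plus oleic acid (400 uM solution). Laser-scanning cytometry with 488 nm excitation read lipid droplets at 500-530 nm and cells at 575-640 nm. Percent activity was relative to 20 uM Triacsin C.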

[1] = measured here: cell number channel AC50, cells fed with added oleic acid
[2] = measured here: lipid fluorescence (Fed channel) AC50, cells fed with added oleic acid

SMILES	cell number change [%]	AC50 [1]	AC50 [2]
Nc1c(C(O)(C(F)(F)F)C(F)(F)F)ccc2ccccc12	-48.3	29.1 µM [falling, single point]	29.1 µM [falling, partial curve]
COc1cccc(N(CC(=O)NCCSc2ccc(Cl)cc2)S(C)(=O)=O)c1	–	–	0.58 µM [falling, single point]
c1ccc(-c2nnc(C(c3ccccc3)c3ccccc3)o2)cc1	35.7	13 µM [rising, partial curve, poor fit]	7.31 µM [rising, partial curve]
COc1cc(OC)c(NC(=O)c2ccco2)cc1Cl	-1.48	–	2.59 µM [rising, full curve]
CCCN1C2=NCCN2c2ccccc21	4.16	–	–
COc1cc([C@@H]2CC=C(C(=O)O)[C@H](c3ccc(Cl)cc3)N2S(=O)(=O)c2ccc(C)cc2)cc(OC)c1OC	-3.83	–	0.651 µM [rising, single point]
CCOC(=O)CC1C(=O)NCCN1S(=O)(=O)c1ccccc1 (centres undefined)	104	–	–
O=C(CCS(=O)(=O)c1ccccc1)Nc1nc2ccc(F)cc2s1	83	–	–
CCN1CC=C2C(C#N)=C(N)C(C#N)(C#N)[C@H](c3cccc(OC)c3OC)[C@H]2C1	–	1.3 µM [rising, partial curve]	–
O=C(COc1ccccc1)Nc1ccc2[nH]c(=O)[nH]c2c1	–	–	2.31 µM [falling, partial curve, poor fit]
Cc1ccc(NC(=O)c2ccc(NCCN)c([N+](=O)[O-])c2)cc1Cl	-35.2	0.461 µM [falling, single point]	32.6 µM [falling, partial curve, poor fit]
CCCCNS(=O)(=O)c1cccc(S(=O)(=O)N2CCCC2)c1	21.1	0.00461 µM [rising, full curve, poor fit]	–
CCOC(=O)CNC(=O)N1CCCC(N(C)CCc2ccccc2)C1 (centres undefined)	30.1	0.0291 µM [rising, full curve, poor fit]	–
O=C(NCc1nc2ccccc2[nH]1)C1=C[C@@H](c2ccccc2)C[C@@H](OCc2ccc(CO)cc2)O1	-0.265	–	2.06 µM [rising, full curve, poor fit]
CCOc1ccc(-n2c(=S)sc3c(=O)[nH]c(SCC(=O)N4CCC(C)CC4)nc32)cc1	1.21	–	32.6 µM [falling, single point]
CCN(CC)CCN(C(=O)CCS(=O)(=O)c1ccccc1)c1nc2cc3c(cc2s1)OCO3	-26.6	–	–
Cc1ccc(NC(=O)c2ccc(Nc3ccccc3F)nc2)cc1	11.6	4.61 µM [falling, single point]	–
C=CCOC(=O)C(C#N)c1nc2ccccc2nc1N1CCN(Cc2ccccc2)CC1 (centres undefined)	25.4	–	0.58 µM [rising, single point]
COc1ccccc1CC(=O)N(CCC1=CCCCC1)c1c(N)n(Cc2ccccc2)c(=O)[nH]c1=O	-21.7	0.00517 µM [falling, full curve, poor fit]	2.91 µM [falling, partial curve, poor fit]
N/C(=N\OC(=O)CCCOc1ccccc1)c1ccccc1	15.1	–	0.103 µM [falling, full curve, poor fit]
CC(C)(C)C(=O)c1sc(Nc2ccccc2)nc1N	6.34	4.11 µM [rising, single point]	6.51 µM [rising, partial curve, poor fit]
CC(/C=N/NC(=O)Cn1nccc1C)=C\c1ccc(C(C)C)cc1	1.11	6.51 µM [falling, single point]	29.1 µM [falling, single point]
O=C(O)CN1C(=O)c2cccc(Oc3ccc(Cl)cc3)c2C1=O	-2.42	–	23.1 µM [falling, single point]
COc1ccc(NC(=O)CSc2nc3ccccc3c(=O)n2CCCN2CCCCC2)c(OC)c1	-16.6	–	–

SMILES	cell number change [%]	AC50 [1]	AC50 [2]
Cc1ccc(-n2c(=O)[nH]c3c(C(N)=O)nc(-c4ccc(C)o4)nc32)cc1	-2.64	–	20.6 µM [falling, single point]
NNC(=O)c1ccc(-c2cccc([N+](=O)[O-])c2)o1	31.3	29.1 µM [rising, single point]	–
C#CCOCCOCCOCCNc1nc(N2CCN(C(=O)[C@H](CCCCN)n3cc([C@@H](N)CO)nn3)CC2)nc(N2CCN(C(=O)[C@H](Cc3cc4ccccc4[nH]3)n3cc([C@@H](N)CO)nn3)CC2)n1	4.42	–	3.26 µM [falling, single point]
Cc1ccc(S(=O)(=O)N/N=C2/CCCCC2C2CCCCC2)cc1[N+](=O)[O-] (centres undefined)	-2.82	0.461 µM [rising, single point]	0.00461 µM [falling, full curve]
Cc1ccc(SCC(=O)OCC(=O)N(CC(C)C)c2c(N)n(Cc3ccccc3)c(=O)[nH]c2=O)cc1C	96	23.1 µM [rising, partial curve]	–
COC(=O)c1ccc(NC(=S)Nc2ccc(O)cc2)cc1	108	18.4 µM [rising, partial curve]	23.1 µM [rising, single point]
CC(C)(C)NC(=O)c1c(F)c(F)c(F)c(F)c1F	-20.4	–	0.184 µM [falling, partial curve, poor fit]
O=C(CNCc1ccc(Cl)cc1)Nc1ccc(C(=O)N2CCCCC2)cc1	-3.91	–	29.1 µM [falling, single point]
CC(O)CO (centres undefined)	-4.66	–	1.16 µM [rising, single point]
COc1ccc(CCNC(=O)CCOc2ccc(C)cc2)cc1OC	-16.7	–	1.64 µM [rising, partial curve]
O=C(N/N=C/c1ccc(-c2cccc([N+](=O)[O-])c2)o1)c1ccccc1O	-10.1	0.461 µM [rising, single point]	–
Cc1ccc(C(=O)CC2(O)C(=O)N(C)c3ccc(Br)cc32)c(C)c1 (centres undefined)	-31.4	23.1 µM [falling, single point]	29.1 µM [falling, single point]
CCn1c(SCC(=O)Nc2ccc(F)cc2)nc2ccccc2c1=O	22	0.164 µM [rising, full curve, poor fit]	4.11 µM [rising, full curve]
Cc1cc(NC(=O)CCN2C(=O)c3ccccc3C2=O)no1	-6.23	0.116 µM [falling, full curve, poor fit]	–
Cc1nc(Cc2nnc(SCC(=O)N3CCN(c4ccc(F)cc4)CC3)o2)cs1	-9.97	–	–
CC(C)c1ccccc1NC(=O)c1ccc(CN(c2ccccc2)S(=O)(=O)c2ccccc2)cc1	-25.8	0.00411 µM [rising, full curve, poor fit]	–
COc1ccccc1CN(C)CC(=O)Nc1cccc2ccccc12	-40.5	20.6 µM [falling, partial curve]	–
COc1cnn(-c2ccccc2)c(=O)c1OC	-2.46	–	3.26 µM [rising, single point]
COc1c2ccccc2nc2ccccc12	1.69	–	29.1 µM [rising, single point]
COC(=O)c1ccc(Cn2cc(C(F)(F)F)cc([N+](=O)[O-])c2=O)cc1	19.8	–	6.51 µM [rising, single point]
CCCCC(C(=O)NC1CCCC1)N(Cc1ccccc1)C(=O)c1snc(C(N)=O)c1N (centres undefined)	-28.9	–	6.31 µM [falling, single point]
Cc1ccccc1OCC(=O)NCCCNC(=O)c1cccnc1	7.92	–	–
CC(=O)NC1C(OCCOc2ccc(Cl)cc2Cl)OC(COC(C)=O)C(OC(C)=O)C1OC(C)=O (centres undefined)	1.13	–	0.58 µM [rising, single point]

4 compounds already listed, ordered by molecular weight, ascending:
SMILES	cell number change [%]	AC50 [1]	AC50 [2]
COc1c2ccccc2nc2ccccc12	1.69	–	29.1 µM [rising, single point]
Cc1cc(NC(=O)CCN2C(=O)c3ccccc3C2=O)no1	-6.23	0.116 µM [falling, full curve, poor fit]	–
CCCCNS(=O)(=O)c1cccc(S(=O)(=O)N2CCCC2)c1	21.1	0.00461 µM [rising, full curve, poor fit]	–
COc1cc([C@@H]2CC=C(C(=O)O)[C@H](c3ccc(Cl)cc3)N2S(=O)(=O)c2ccc(C)cc2)cc(OC)c1OC	-3.83	–	0.651 µM [rising, single point]
